From PubChem BioAssay AID493014 (National Center for Advancing Translational Sciences (NCATS), 2011)
Hit rate of the full screen: of about 340,000 compounds, about 170 (0.05%) were called active. This list was built around the results that the source calls inconclusive (neither active nor inactive); the mix of calls is not that of the screen. Calls follow the shape of the dose curve; as a rule, active = well fitted inhibition curve with a large enough effect in the signal ratio, with a control signal flat (not every such curve was filed as active); inconclusive = small, poorly fitted or top-dose-only effect, or effect the other way, or a change in a side signal; inactive = flat fitted curve, though single readings scatter; the % refers to the signal ratio. A potency beside an inconclusive call is a rough fit, not a confirmed value.
Potency is read from the fitted curve at half-maximal effect.

Experiment: qHTS Assay to Find Inhibitors of Chronic Active B-Cell Receptor Signaling;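 as to activity change, negative = inhibition: plate controls were basal doxycycline-induced cells for no effect and cells given 10 µM MG132 for full effect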
Settings: ABC-DLBCL IkBa-CBG/CBR reporter, luminescence ratio (green luciferase fused to IkBa over red control in TMD8 lymphoma cells), 4 h; activity change, negative = inhibition: at 46.1 µM (top of the series) unless noted
How it was run: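 Cell line TMD8 (human ABC DLBCL), stably expressing tet-inducible CBG68-IkBa fusion and CBR; IMDM/0.5% FBS; cpd up to 46 uM; dox induction, 4 h, 37C/5% CO2; dual luminescence; green/red ratio; MG132 control.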
In the case of `Cc1cc(-c2ccccc2)nc(N(C)NC(=O)c2c(F)cccc2F)c1S(C)(=O)=O`, the Potency is reported as inconclusive: 1.64 µM [falling, full curve, poor fit].
With `COc1ccc(/C(N)=N/OC(=O)CCCc2ccccc2)cc1` the activity change, negative = inhibition was inconclusive: 7.62%.
With `Cc1ccc(-c2ccc(CCC(=O)O)n2CC(=O)O)cc1` the activity change, negative = inhibition was inconclusive: 7.27%.
In the case of `O=C(Nc1ccncc1)c1ccc2c(c1)S(=O)(=O)c1ccccc1C2=O`, the activity change, negative = inhibition is reported as inconclusive: 3.45%.
For `CCn1c(C)cc(/C=C2/SC(=S)NC2=O)c1C`, the activity change, negative = inhibition was inconclusive: 22.1%.
In the case of `Nc1ccc(C2(c3ccc(N)cc3)C(=O)Nc3ccccc32)cc1`, the activity change, negative = inhibition is reported as inconclusive: -1.24%.
With `CN(CC(=O)Nc1ccc(OC(F)(F)F)cc1)C(=O)/C=C/c1cc2c(cc1[N+](=O)[O-])OCO2` the activity change, negative = inhibition was inconclusive: -5.72%.
In the case of `COc1ccc(CN2CCSc3sccc3C2=O)cc1`, the activity change, negative = inhibition is reported as inconclusive: 4.13%.
In the case of `O=C(Cc1csc(NC(=O)Nc2ccc(Cl)cc2)n1)NC1CCCC1`, the activity change, negative = inhibition is reported as inconclusive: 19.3%.
With `O=C(Cn1ccc2ccccc2c1=O)NCC(=O)N1CCN(c2ccccc2F)CC1` the “activity change, negative = inhibition” value was inactive: -7.68%.
In the case of `COc1ccc(-c2cc3ccccc3n2CC(O)CN2CCCCC2)cc1` (stereo not drawn), the “activity change, negative = inhibition” value is reported as inactive: -13.8%.
With `CC1(C)CC(=O)c2cnc(NC(=O)CSc3nc4ccccc4o3)nc2C1` the Potency was inconclusive: 3.26 µM [falling, partial curve, poor fit].
With `COc1ccc(C2=NOC(C(=O)N3CCN(c4ccccc4OC)CC3)C2)cc1` (stereo not drawn) the activity change, negative = inhibition was inconclusive: 13.8%.
For `CCCn1c(=O)c(C(=O)NNC(=O)c2ccc(Cl)cc2Cl)c(O)c2ccccc21`, the “activity change, negative = inhibition” value was inactive: -7.35%.
For `Cc1cc(=O)n2nc(N3CCCC(C(=O)N4CCc5ccccc54)C3)sc2n1` (stereo not drawn), the activity change, negative = inhibition was inconclusive: 7.41%.
With `Cc1ccnc(NC(=O)c2c(O)c3ccccc3n(C)c2=O)c1` the “activity change, negative = inhibition” value was inactive: 0.276%.
With `O=S(=O)(NC1CCN(S(=O)(=O)c2c(F)cccc2F)C1)c1ccc2c(c1)OCCO2` (stereo not drawn) the “activity change, negative = inhibition” value was inactive: 2.01%.
For `N#C/C(=C(/O)COC(=O)c1cccnc1Cl)c1nc2ccccc2[nH]1`, the “activity change, negative = inhibition” value was inactive: -1.77%.
In the case of `COc1cccc(OC)c1OCCN(C)C`, the activity change, negative = inhibition is reported as inconclusive: 62.8%.
With `COc1ccc(NC(=O)c2cccc(OC(=S)N3CCOCC3)c2)cc1` the activity change, negative = inhibition was inconclusive: -19%.
In the case of `CC1CCCCC1NC(=O)COC(=O)c1ccc2ncsc2c1` (stereo not drawn), the “activity change, negative = inhibition” value is reported as inactive: 0.439%.
With `O=C(NCCC1=CCCCC1)c1ccc2c(c1)N(Cc1cccc(Cl)c1)C(=O)c1ccccc1S2(=O)=O` the Potency was inconclusive: 0.501 µM [rising, full curve, poor fit].
For `COCCC(=O)N1CCc2c([nH]c3ccccc23)C1C(C)(C)C` (stereo not drawn), the activity change, negative = inhibition was inconclusive: -7.41%.
For `CC(=O)Oc1ccc2occ(C(=O)c3cccs3)c2c1`, the activity change, negative = inhibition was inconclusive: -2.38%.
In the case of `CCCCN(CC)Cc1ccc(CNC(=S)Nc2cccc(F)c2)o1`, the activity change, negative = inhibition is reported as inconclusive: -23.4%.
For `CC(C)NS(=O)(=O)c1ccc(CCC(=O)N2CCC(C(N)=O)CC2)cc1`, the Potency was inconclusive: 17.8 µM [falling, single point].
With `CCN(CC)S(=O)(=O)c1ccc(N2CCOCC2)c(NC(=O)Cc2ccccc2)c1` the “activity change, negative = inhibition” value was inactive: 4.39%.
In the case of `COc1ccc(/C=C/c2nc3cc(-c4ccccc4)ccc3o2)cc1O`, the “activity change, negative = inhibition” value is reported as inactive: 7.62%.
In the case of `COC(=O)c1ccccc1S(=O)(=O)NNC(=O)C12CC3CC(CC(C3)C1)C2`, the “activity change, negative = inhibition” value is reported as inactive: 0.446%.
In the case of `C/C(CC(=O)Nc1ccc(F)cc1)=N\NC(=O)c1ccccn1`, the Potency is reported as inconclusive: 31.6 µM [rising, single point].
In the case of `CCc1ccc(N(CC(=O)NC2CCCCC2)S(=O)(=O)c2c(C)noc2C)cc1`, the Potency is reported as inconclusive: 3.16 µM [falling, partial curve].
For `CCOCCCn1c(SCc2ccccc2)nnc1-c1ccncc1`, the “activity change, negative = inhibition” value was inactive: 8.64%.
With `COc1ccc(S(=O)(=O)N(CC(=O)Nc2cccc(C)c2)c2ccc(C)cc2)cc1OC` the activity change, negative = inhibition was inconclusive: 6.52%.
With `Cc1ccc(NC(=O)CSc2nc(NS(=O)(=O)c3ccccc3)cc(=O)[nH]2)cc1` the “activity change, negative = inhibition” value was inactive: -1.8%.
In the case of `CN(C)c1ccc(C(=O)NC2CCCc3ccccc32)cc1` (stereo not drawn), the activity change, negative = inhibition is reported as inconclusive: -14.7%.
In the case of `CCOc1ccccc1-n1nnnc1SCC(=O)N1CCCC1=O`, the “activity change, negative = inhibition” value is reported as inactive: 1%.
In the case of `CCC(C)[C@H]1CN=C(N)N1CCCc1cc(OC)c(OC)c(OC)c1` (stereo partly drawn), the “activity change, negative = inhibition” value is reported as inactive: 0.0386%.
In the case of `CCCCCCCCNc1nc(Cl)nc(NCc2ccco2)n1`, the “activity change, negative = inhibition” value is reported as inactive: -0.91%.
For `COc1cc(NC(=O)C(C)C)ccc1NC(=O)c1cc2ccccc2o1`, the activity change, negative = inhibition was inconclusive: 9.45%.
In the case of `O=c1c2c([nH]c3ccccc13)CCCCC2`, the activity change, negative = inhibition is reported as inconclusive: 6.19%.
For `Cc1cc(/C=N\NC(=O)CC(=O)NC2CCCCC2)c(C)n1-c1cccc(Cl)c1Cl`, the activity change, negative = inhibition was inconclusive: -14.6%.
In the case of `O=C(NNc1nc2c(F)cc(F)cc2s1)c1ccccc1`, the Potency is reported as inconclusive: 15.8 µM [falling, single point].
For `Cc1cccc(NC(=O)c2ccc(-n3ccnc3)nc2)c1`, the Potency was inconclusive: 18.4 µM [falling, single point].
In the case of `CCOC(=O)c1cccc(NC(=O)c2cncc(Br)c2)c1`, the activity change, negative = inhibition is reported as inconclusive: 1.22%.
For `Oc1c(N=NC(=S)Nc2ccccc2F)c2ccccc2n1Cc1ccccc1`, the Potency was inconclusive: 14.1 µM [falling, single point].
In the case of `CC(=O)c1ccc(NC(=O)c2cc(CC(C)C)nc3ccccc23)cc1`, the Potency is reported as inconclusive: 25.1 µM [falling, single point].
With `C=CC[C@H](CC(=O)N[C@H](CO)Cc1ccccc1)C(=O)N[C@@H](COC(=O)[C@@H](CC=C)Cc1ccc(F)cc1)Cc1c[nH]c2ccccc12` the activity change, negative = inhibition was inconclusive: -0.835%.
For `O=C(OCc1ccc([N+](=O)[O-])cc1)c1cnc(Cl)c(Cl)c1`, the activity change, negative = inhibition was inconclusive: -16.2%.
For `CN1CCN(c2cc(N3CCc4ccccc4C3)c(F)cc2[N+](=O)[O-])CC1`, the Potency was inconclusive: 29.1 µM [falling, single point].
With `Cc1ccc2c(c1)c1c(n2CC(O)CN2C(=O)CNC2=O)C(=O)CCC1` (stereo not drawn) the activity change, negative = inhibition was inconclusive: -1.1%.
In the case of `CC1CCCC(C)N1C(=O)c1cc(-c2ccc(Cl)c(Cl)c2)on1` (stereo not drawn), the Potency is reported as inconclusive: 6.31 µM [rising, partial curve].
For `Cc1ccccc1-c1nnc(SCc2ccccc2F)o1`, the activity change, negative = inhibition was inconclusive: 10.5%.
For `COc1ccc(S(=O)(=O)n2nc(OC(=O)c3ccc(C)cc3)cc2N)cc1`, the Potency was inconclusive: 35.5 µM [falling, partial curve, poor fit].
